The values below come from PMC8917236.

No constants are given. Whether binding was seen depends on the method and setting. In cells and extracts the contact can be indirect. Some binding calls cover weakened binding; strength is not graded here. Tags and fused reporters may be left off the sequences shown.

The target of assay [1] is T1, RLP32-GFP (Arabidopsis leucine-rich repeat receptor-like protein 32 with C-terminal GFP) (Arabidopsis thaliana) (UniProt Q9M9X0).
T1 sequence: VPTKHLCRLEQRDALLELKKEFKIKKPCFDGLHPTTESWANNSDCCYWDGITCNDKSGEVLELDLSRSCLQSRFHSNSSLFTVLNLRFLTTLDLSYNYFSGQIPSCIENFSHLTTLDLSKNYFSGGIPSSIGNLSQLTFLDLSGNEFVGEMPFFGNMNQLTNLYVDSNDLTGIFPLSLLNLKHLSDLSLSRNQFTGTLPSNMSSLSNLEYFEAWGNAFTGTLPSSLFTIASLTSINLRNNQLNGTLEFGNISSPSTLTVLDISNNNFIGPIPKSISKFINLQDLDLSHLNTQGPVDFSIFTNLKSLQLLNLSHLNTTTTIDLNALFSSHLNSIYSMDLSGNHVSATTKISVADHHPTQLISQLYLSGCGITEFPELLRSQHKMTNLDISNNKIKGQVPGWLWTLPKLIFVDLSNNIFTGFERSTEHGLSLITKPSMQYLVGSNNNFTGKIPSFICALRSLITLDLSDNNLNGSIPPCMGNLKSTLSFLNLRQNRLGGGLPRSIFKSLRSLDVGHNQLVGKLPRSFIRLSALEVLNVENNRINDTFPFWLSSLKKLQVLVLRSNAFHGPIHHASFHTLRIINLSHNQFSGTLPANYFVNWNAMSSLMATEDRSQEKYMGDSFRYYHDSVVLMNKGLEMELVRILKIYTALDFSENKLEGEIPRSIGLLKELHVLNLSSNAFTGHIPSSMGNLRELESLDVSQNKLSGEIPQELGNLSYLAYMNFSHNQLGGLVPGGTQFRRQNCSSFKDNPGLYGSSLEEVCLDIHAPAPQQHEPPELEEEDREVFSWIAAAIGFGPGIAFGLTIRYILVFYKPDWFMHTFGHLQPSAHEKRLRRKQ
The assay can be described thus: condition: only with a 1000-fold molar excess of native IF1 (30 uM); cross-linking; in vivo cross-linking: N. benthamiana leaves expressing the GFP-tagged receptor infiltrated with 30 nM biotinylated ligand, with or without 30 uM unlabeled competitor; after 5 min 2 mM EGS, harvest after 15 min; receptor precipitated with GFP-Trap beads; bound ligand detected on blots with streptavidin-alkaline phosphatase; only the binder purified.

The target of assay [2] is T1, RLP32-GFP (Arabidopsis leucine-rich repeat receptor-like protein 32 with C-terminal GFP) (Arabidopsis thaliana). Kind of assay: cross-linking; in vivo cross-linking: N. benthamiana leaves expressing the GFP-tagged receptor infiltrated with 30 nM biotinylated ligand, with or without 30 uM unlabeled competitor; after 5 min 2 mM EGS, harvest after 15 min; receptor precipitated with GFP-Trap beads; bound ligand detected on blots with streptavidin-alkaline phosphatase; only the binder purified.

B1: biotinylated IF1 (translation initiation factor 1) (ligand, UniProt P69222 1-72)
chain: MAKEDNIEMQGTVLETLPNTMFRVELENGHVVTAHISGKMRKNYIRILTGDKVTVELTPYDLSKGRIVFRSR
modifications: biotin (position not given)
For the molecule B1, the binding entry in assay [1] was “no binding”; in assay [2] it was “binds”.

B2: translation initiation factor 1 (IF1), unlabeled, chemically synthesized (ligand, UniProt P69222 1-72)
chain: MAKEDNIEMQGTVLETLPNTMFRVELENGHVVTAHISGKMRKNYIRILTGDKVTVELTPYDLSKGRIVFRSR
Take B2: the binding result in assay [2] is reported as “binds”.
